# Laboratory results published in PubChem BioAssay AID248 (DTP/NCI, 2004).
# The list is a part of this screen's results and no random one: it is rich in T/C values a quarter to a half above the control, in often repeated tests (any T/C) and in doses without a T/C. Other doses and runs of a compound stand elsewhere. T/C is the treated group as % of the vehicle group. Some entries give survivors of the animals treated and no T/C: the source holds a T/C of zero for them, seemingly a mark for toxic or unscored doses. Some survivor counts are full or nearly so, which does not show that the dose was tolerated: the source hardly ever lists a survival T/C far under the control, and the zero likely stands for such cases as well. Counts of survivors are from the toxicity check (mostly the fifth day) where no day follows; animals may have died later. Schedules are NCI's codes, read here as Q, the interval in days (D) or hours (H), X, the number of doses. Some entries hold several experiments; the values are given in rising order. Some schedule codes hold Z or #, which are not explained here. Some structures stand for samples that the source files as different forms (salt, stereo form or complex); doses refer to the form tested. Where survival is the endpoint, this PubChem deposit counts one and a half times the control or more as active, and values a quarter to a half above the control carry no call in these data; other NCI protocols may use other cut-offs. Some T/C values are followed by the survivors on the day toxicity was checked, most often the fifth; where none is given, no animal had died by that day.
# System: L1210 leukemia ip in BDF1 mice, survival T/C
# Experiment: NCI In Vivo Anticancer Drug Screen. Data for tumor model L1210 Leukemia (intraperitoneal) in B6D2F1 (BDF1) mice
# Conditions: T/C endpoint: mean survival time, higher T/C = longer survival
# [1] = dose: 400.0 mg/kg/injection, schedule: Q04DX002 (ip), vehicle: saline
# [2] = dose: 400.0 mg/kg/injection, schedule: Q04DX003 (ip), vehicle: saline with Tween-80
compound,measurement,setting,value
c1ccc([Se+](c2ccccc2)c2ccccc2)cc1,survivor count,"dose: 0.9 mg/kg/injection, schedule: Q01DX009 (ip), vehicle: Klucel (hydroxypropylcellulose) (HPC)",0 of 6
same,survivor count,"dose: 1.56 mg/kg/injection, schedule: Q01DX009 (ip), vehicle: saline",5 of 6
same,survivor count,"dose: 3.12 mg/kg/injection, schedule: Q01DX009 (ip), vehicle: saline",0 of 6
same,survivor count,"dose: 6.25 mg/kg/injection, schedule: Q01DX009 (ip), vehicle: saline",0 of 6
same,survivor count,"dose: 12.5 mg/kg/injection, schedule: Q01DX009 (ip), vehicle: saline",0 of 6
same,survivor count,"dose: 25.0 mg/kg/injection, schedule: Q01DX009 (ip), vehicle: saline",0 of 6
same,survivor count,"dose: 25.0 mg/kg/injection, schedule: Q04DX002 (ip), vehicle: saline",0 of 3
same,survivor count,"dose: 50.0 mg/kg/injection, schedule: Q04DX002 (ip), vehicle: saline",0 of 3
same,survivor count,"dose: 100.0 mg/kg/injection, schedule: Q04DX002 (ip), vehicle: saline",0 of 3
same,survivor count,"dose: 200.0 mg/kg/injection, schedule: Q04DX002 (ip), vehicle: saline",0 of 3
same,survivor count,[1],0 of 3
CSc1ccc([PH+](c2ccc(SC)cc2)c2ccc(SC)cc2)cc1.CSc1ccc([PH+](c2ccc(SC)cc2)c2ccc(SC)cc2)cc1.[Cl][Hg][Cl],survivor count,"dose: 50.0 mg/kg/injection, schedule: Q01DX009 (ip), vehicle: Klucel (hydroxypropylcellulose) (HPC)",3 of 3
O=S(=O)(O)SCC1NCCCN1,survivor count,"dose: 100.0 mg/kg/injection, schedule: Q04DX002 (ip), vehicle: saline with Tween-80",3 of 3
same,survivor count,"dose: 200.0 mg/kg/injection, schedule: Q04DX002 (ip), vehicle: saline with Tween-80",0 of 3
same,survivor count,"dose: 400.0 mg/kg/injection, schedule: Q04DX002 (ip), vehicle: saline with Tween-80",0 of 3
CCCCCC#CCO,survivor count,[2],2 of 6
CCN(CC)C(=O)CSC#N,survivor count,"dose: 25.0 mg/kg/injection, schedule: Q04DX002 (ip), vehicle: other",1 of 3
ClCCCNCc1ccc(-c2c3ccccc3cc3c2ccc2ccccc23)cc1,survivor count,"dose: 400.0 mg/kg/injection, schedule: Q01DX001 (ip), vehicle: carboxymethylcellulose (CMC)",0 of 4
CC1=CC(C)(C)NC(=S)N1c1ccc(N=Nc2ccccc2)cc1,survivor count,"dose: 224.0 mg/kg/injection, schedule: Q01DX Z (ip), vehicle: methylcellulose (MC)",6 of 6
same,survivor count,"dose: 750.0 mg/kg/injection, schedule: Q01DX Z (ip), vehicle: methylcellulose (MC)",4 of 6
COc1cc2c(cc1Cl)nc1c(=O)[nH]c(=O)nc-1n2CCN1CCCC1,T/C,"dose: 35.0 mg/kg/injection, schedule: Q01DX Z (ip), vehicle: methylcellulose (MC)",127 % of control [6 of 7 alive]
CCN(CC)CCOC(=O)C(c1ccccc1)c1ccccc1,survivor count,"dose: 300.0 mg/kg/injection, schedule: Q01DX001 (ip), vehicle: saline",2 of 6
Nc1cc2c(cc1N)-c1ccccc1/C2=N\O,survivor count,"dose: 300.0 mg/kg/injection, schedule: Q01DX001 (ip), vehicle: carboxymethylcellulose (CMC)",6 of 6
C#CCN(CC#C)C(C)=O,survivor count,[1],0 of 3
CCOC(=O)C(OCc1ccccc1)(C(=O)Cl)C(C)C (configuration not stated),survivor count,"dose: 50.0 mg/kg/injection, schedule: Q01DX009 (ip), vehicle: saline with Tween-80",3 of 6
same,survivor count,"dose: 100.0 mg/kg/injection, schedule: Q01DX009 (ip), vehicle: saline with Tween-80",1 of 6
same,survivor count,"dose: 100.0 mg/kg/injection, schedule: Q04DX003 (ip), vehicle: saline with Tween-80",1 of 6
same,survivor count,"dose: 200.0 mg/kg/injection, schedule: Q04DX003 (ip), vehicle: saline with Tween-80",0 of 6
same,survivor count,[2],0 of 6
CC(CC12CC3CC(CC(C3)C1)C2)NN (configuration not stated),survivor count,"dose: 100.0 mg/kg/injection, schedule: Q04DX002 (ip), vehicle: Klucel (hydroxypropylcellulose) (HPC)",2 of 3 and 3 of 3
same,survivor count,"dose: 200.0 mg/kg/injection, schedule: Q04DX002 (ip), vehicle: Klucel (hydroxypropylcellulose) (HPC)",0 of 3
same,survivor count,"dose: 400.0 mg/kg/injection, schedule: Q04DX002 (ip), vehicle: Klucel (hydroxypropylcellulose) (HPC)",0 of 3
